This is one part of the list.
Experiments:
Experiment in all cases: glycan array binding signal (z-score within array); higher = stronger binding
Settings in all cases: glycan notation: IUPAC condensed, linker removed
[1] = target: Man(a1-2)Man(a1-2)Man(a1-3)Man
Method in brief: (§1)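 Arrays were curated from the Consortium for Functional Glycomics database, 3228 in total, and kept only where the protein sequence was available. Binding is expressed as a within-array Z-score. This score was averaged across arrays of the same protein sequence at different concentrations or buffers and across linkers, and negative values can be read as non-binding.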

[2] = target: Man(a1-2)Man(a1-2)Man(a1-6)[Man(a1-3)]Man
Method in brief: as §1

[3] = target: Man(a1-2)Man(a1-3)Man
Method in brief: as §1

[4] = target: Man(a1-2)Man(a1-3)[Man(a1-2)Man(a1-6)]Man
Method in brief: as §1

[5] = target: Man(a1-2)Man(a1-3)[Man(a1-2)Man(a1-6)]Man(a1-6)[Man(a1-2)Man(a1-2)Man(a1-3)]Man
Method in brief: as §1

[6] = target: Man(a1-2)Man(a1-3)[Man(a1-2)Man(a1-6)]Man(a1-6)[Man(a1-2)Man(a1-2)Man(a1-3)]Man(b1-4)GlcNAc(b1-4)GlcNAc
Method in brief: as §1

[7] = target: Man(a1-2)Man(a1-3)[Man(a1-6)]Man(a1-6)[Man(a1-2)Man(a1-3)]Man(b1-4)GlcNAc(b1-4)GlcNAc
Method in brief: as §1

[8] = target: Man(a1-2)Man(a1-6)[Man(a1-3)]Man(a1-6)[Man(a1-2)Man(a1-2)Man(a1-3)]Man
Method in brief: as §1

[9] = target: Man(a1-2)Man(a1-6)[Man(a1-3)]Man(a1-6)[Man(a1-2)Man(a1-2)Man(a1-3)]Man(b1-4)GlcNAc(b1-4)GlcNAc
Method in brief: as §1

[10] = target: Man(a1-3)[Man(a1-6)]Man
Method in brief: as §1

[11] = target: Man(a1-3)[Man(a1-6)]Man(a1-6)[Man(a1-2)Man(a1-3)]Man(b1-4)GlcNAc(b1-4)GlcNAc
Method in brief: as §1

[12] = target: Man(a1-3)[Man(a1-6)]Man(a1-6)[Man(a1-3)]Man
Method in brief: as §1

[13] = target: Man(a1-3)[Man(a1-6)]Man(a1-6)[Man(a1-3)]Man(b1-4)GlcNAc(b1-4)GlcNAc
Method in brief: as §1

[14] = target: Man(a1-3)[Man(a1-6)]Man(b1-4)GlcNAc(b1-4)GlcNAc
Method in brief: as §1

[15] = target: Man(a1-6)Man
Method in brief: as §1

[16] = target: Man(b1-4)GlcNAc
Method in brief: as §1

[17] = target: Neu5Ac(a2-3)Gal
Method in brief: as §1

[18] = target: Neu5Ac(a2-3)Gal(b1-3)GalNAc
Method in brief: as §1

[19] = target: Neu5Ac(a2-3)Gal(b1-3)GalNAc(b1-3)Gal(a1-4)Gal(b1-4)Glc
Method in brief: as §1

[20] = target: Neu5Ac(a2-3)Gal(b1-3)GalNAc(b1-3)Gal(b1-4)GlcNAc
Method in brief: as §1

[21] = target: Neu5Ac(a2-3)Gal(b1-3)GalNAc(b1-4)[Neu5Ac(a2-3)]Gal(b1-4)Glc
Method in brief: as §1

[22] = target: Neu5Ac(a2-3)Gal(b1-3)GalNAc6S
Method in brief: as §1

[23] = target: Neu5Ac(a2-3)Gal(b1-3)GlcNAc
Method in brief: as §1

[24] = target: Neu5Ac(a2-3)Gal(b1-3)GlcNAc(b1-3)Gal(b1-3)GlcNAc
Method in brief: as §1

[25] = target: Neu5Ac(a2-3)Gal(b1-3)GlcNAc6S
Method in brief: as §1

[26] = target: Neu5Ac(a2-3)Gal(b1-3)[Fuc(a1-4)]GlcNAc
Method in brief: as §1

[27] = target: Neu5Ac(a2-3)Gal(b1-3)[Fuc(a1-4)]GlcNAc(b1-3)Gal(b1-3)[Fuc(a1-4)]GlcNAc
Method in brief: as §1

[28] = target: Neu5Ac(a2-3)Gal(b1-3)[Fuc(a1-4)]GlcNAc(b1-3)Gal(b1-4)[Fuc(a1-3)]GlcNAc
Method in brief: as §1

[29] = target: Neu5Ac(a2-3)Gal(b1-3)[Neu5Ac(a2-3)Gal(b1-4)]GlcNAc
Method in brief: as §1

[30] = target: Neu5Ac(a2-3)Gal(b1-3)[Neu5Ac(a2-6)]GalNAc
Method in brief: as §1

[31] = target: Neu5Ac(a2-3)Gal(b1-4)Glc
Method in brief: as §1

[32] = target: Neu5Ac(a2-3)Gal(b1-4)GlcNAc
Method in brief: as §1

[33] = target: Neu5Ac(a2-3)Gal(b1-4)GlcNAc(b1-2)Man(a1-3)[GlcNAc(b1-2)Man(b1-4)GlcNAc(b1-2)Man(a1-6)]Man(b1-4)GlcNAc(b1-4)GlcNAc
Method in brief: as §1

[34] = target: Neu5Ac(a2-3)Gal(b1-4)GlcNAc(b1-2)Man(a1-3)[Neu5Ac(a2-6)Gal(b1-4)GlcNAc(b1-2)Man(a1-6)]Man(b1-4)GlcNAc(b1-4)GlcNAc
Method in brief: as §1

[35] = target: Neu5Ac(a2-3)Gal(b1-4)GlcNAc(b1-3)Gal(b1-3)GlcNAc
Method in brief: as §1

[36] = target: Neu5Ac(a2-3)Gal(b1-4)GlcNAc(b1-3)Gal(b1-4)GlcNAc
Method in brief: as §1

[37] = target: Neu5Ac(a2-3)Gal(b1-4)GlcNAc(b1-3)Gal(b1-4)GlcNAc(b1-3)Gal(b1-4)GlcNAc
Method in brief: as §1

[38] = target: Neu5Ac(a2-3)Gal(b1-4)GlcNAc(b1-3)Gal(b1-4)[Fuc(a1-3)]GlcNAc
Method in brief: as §1

[39] = target: Neu5Ac(a2-3)Gal(b1-4)GlcNAc(b1-3)GalNAc
Method in brief: as §1

[40] = target: Neu5Ac(a2-3)Gal(b1-4)GlcNAc(b1-6)[Gal(b1-3)]GalNAc
Method in brief: as §1

[41] = target: Neu5Ac(a2-3)Gal(b1-4)GlcNAc(b1-6)[Neu5Ac(a2-3)Gal(b1-3)]GalNAc
Method in brief: as §1

[42] = target: Neu5Ac(a2-3)Gal(b1-4)GlcNAc6S
Method in brief: as §1

[43] = target: Neu5Ac(a2-3)Gal(b1-4)[Fuc(a1-3)]GlcNAc
Method in brief: as §1

[44] = target: Neu5Ac(a2-3)Gal(b1-4)[Fuc(a1-3)]GlcNAc(b1-3)Gal
Method in brief: as §1

[45] = target: Neu5Ac(a2-3)Gal(b1-4)[Fuc(a1-3)]GlcNAc(b1-3)Gal(b1-4)GlcNAc
Method in brief: as §1

B1: PP2A1 (Arabidopsis thaliana) (protein)
chain: MFRNQDSKYLIPVQKEAPPVTTLPMKASTVKSPHNCEAILRDADPPISLSSVNLSEQLRSGVFLKPKKQIKYWVDERNSNCFMLFAKNLSITWSDDVNYWTWFTEKESPNENVEAVGLKNVCWLDITGKFDTRNLTPGIVYEVVFKVKLEDPAYGWDTPVNLKLVLPNGKEKPQEKKVSLRELPRYKWVDVRVGEFVPEKSAAGEITFSMYEHAAGVWKKGLSLKGVAIRPKQHHHHHH
glycan array binding signal (z-score) [1]: -0.323
glycan array binding signal (z-score) [2]: 0.03
glycan array binding signal (z-score) [3]: -0.345
glycan array binding signal (z-score) [4]: 0.174
glycan array binding signal (z-score) [5]: -0.318
glycan array binding signal (z-score) [6]: 1.07
glycan array binding signal (z-score) [7]: 3.07
glycan array binding signal (z-score) [8]: -0.305
glycan array binding signal (z-score) [9]: 2.69
glycan array binding signal (z-score) [10]: -0.025
glycan array binding signal (z-score) [11]: 2.97
glycan array binding signal (z-score) [12]: -0.509
glycan array binding signal (z-score) [13]: 3.55
glycan array binding signal (z-score) [14]: 2.85
glycan array binding signal (z-score) [15]: -0.585
glycan array binding signal (z-score) [16]: -0.006
glycan array binding signal (z-score) [17]: -0.354
glycan array binding signal (z-score) [18]: -0.38
glycan array binding signal (z-score) [19]: -0.176
glycan array binding signal (z-score) [20]: -0.417
glycan array binding signal (z-score) [21]: -0.335
glycan array binding signal (z-score) [22]: 0.425
glycan array binding signal (z-score) [23]: -0.389
glycan array binding signal (z-score) [24]: 0.141
glycan array binding signal (z-score) [25]: -0.303
glycan array binding signal (z-score) [26]: -0.518
glycan array binding signal (z-score) [27]: 0.594
glycan array binding signal (z-score) [28]: -0.509
glycan array binding signal (z-score) [29]: -0.638
glycan array binding signal (z-score) [30]: 0.432
glycan array binding signal (z-score) [31]: -0.203
glycan array binding signal (z-score) [32]: -0.269
glycan array binding signal (z-score) [33]: 1.11
glycan array binding signal (z-score) [34]: 0.209
glycan array binding signal (z-score) [35]: -0.113
glycan array binding signal (z-score) [36]: -0.683
glycan array binding signal (z-score) [37]: -0.095
glycan array binding signal (z-score) [38]: 0.387
glycan array binding signal (z-score) [39]: -0.146
glycan array binding signal (z-score) [40]: 0.192
glycan array binding signal (z-score) [41]: -0.337
glycan array binding signal (z-score) [42]: 0.257
glycan array binding signal (z-score) [43]: -0.28
glycan array binding signal (z-score) [44]: -0.14
glycan array binding signal (z-score) [45]: 0.243

— the supplement of paper PMC8728848
